Reference: article PMC12270911
These are yes or no findings as the source states them, for the method shown. Binding seen in cells or lysates may run through a third protein. Here binding means that the protein was enriched with, or labelled near, the bait; the list need not be complete.

B1: RDM4 (protein, UniProt Q8GYP3 1-346)
chain: MDGVGESSTQNEVEEKPVIVRVKRKVGQSLLDAFWLEINERPLKRPTLDFSKLSISDSGERGPSVAEDVKPKKVLVRHLETVTDSETTADIIHSFFESDHNEKSCSKGKFEERKIAFKKDNRKEQRLTKSVQKQQIASENARFEQIWRSRKGNKEGIHEKCHFFDVIRVDTEERRDNAQEFTSLEDQKMLASFLPLLRECIPTAAEEIEADIQSSHTEEYVYDYYAVNEEMDISEDSSKNQFPLVIVEDEEEFCDGSDESDYDSEDSNAEDHPKTDYPEEEEEEEEEDDDDDDDDESEEEKSEASDESDDEETSKRHVRSVLGDDEFDDYAEDVYGYSESDEEFES
B2: REM12 (protein, UniProt P0CAP4 1-446)
chain: MVLNSSDLGPSRCDIRDLPAPSSTNDQGKTELARKKKVKRSNTEIEADASSSDNSCFVALVTASNLRKDALYLPQDLTSSVGLERKYREIVVTDERERRSWALDLRFNKSSDTFYISRGWRSFCDENGKKPGGVFVFKLVGNRETPVLSFCSTESINDGTQGHKNNKYNCMELKSKKKRMRCRDSTSPSQNRFMTLTLTHDNLIKSRRYLPLSFTRDNGLDKPGMIFLLGKTGRKWEANLLREASGRIVLTGKGWKEFAMANGLKSGELFTLEAILEKGTPMLSLVNTQSTNYRSQQGECSRDSEKESSICAEPSRGNKKWKATNNRKERRDSSSAIQNRYVTLTLTPEDVRACTLILPSQFMKANGINKLGKKTLLGQNRKKWFAYLLSKSGFVALGSGWKGFCEANGVKTGESFNLEYIDEQDTTPVFKFCSNSVEYVKFTSLP
B3: CLSY3, endogenous (protein, UniProt F4I8S3 1-1410)
chain: MECIGKRVKSRSWQRLQAVNKRKKMETVAPVTSPPKKRRQKKPKNYDSDIEDITPTCNDSVPPPQVSNMYSVPNNSVKESFSRIMRDLNVEKKSGPSSSRLTDGSEQNPCLKERSFRVSDLGVEKKCSPEITDLDVGIPVPRFSKLKDVSEQKNTCLMQKSSPEIADLDLVISVPSSSVLKDVSEEIRFLKDKCSPEIRGLVLEKSVPGEIEILSDSESETEARRRASAKKKLFEESSRIVESISDGEDSSSETDEEEEENQDSEDNNTKDNVTVESLSSEDPSSSSSSSSSSSSSSSSSSSDDESYVKEVVGDNRDDDDLRKASSPIKRVSLVERKALVRYKRSGSSLTKPRERDNKIQKLNHREEEKKERQREVVRVVTKQPSNVVYTCAHCGKENTGNPESHSSFIRPHSIRDEIEDVNNFASTNVSKYEDSVSINSGKTTGAPSRPEVENPETGKELNTPEKPSISRPEIFTTEKAIDVQVPEEPSRPEIYSSEKAKEVQAPEMPSRPEVFSSEKAKEIQVPEMPSIPEIQNSEKAKEVQANNRMGLTTPAVAEGLNKSVVTNEHIEDDSDSSISSGDGYESDPTLKDKEVKINNHSDWRILNGNNKEVDLFRLLVNSVWEKGQLGEEDEADELVSSAEDQSQEQAREDHRKYDDAGLLIIRPPPLIEKFGVEEPQSPPVVSEIDSEEDRLWEELAFFTKSNDIGGNELFSNVEKNISANETPAAQCKKGKHDLCIDLEVGLKCMHCGFVEREIRSMDVSEWGEKTTRERRKFDRFEEEEGSSFIGKLGFDAPNNSLNEGCVSSEGTVWDKIPGVKSQMYPHQQEGFEFIWKNLAGTIMLNELKDFENSDETGGCIMSHAPGTGKTRLTIIFLQAYLQCFPDCKPVIIAPASLLLTWAEEFKKWNISIPFHNLSSLDFTGKENSAALGLLMQKNATARSNNEIRMVKIYSWIKSKSILGISYNLYEKLAGVKDEDKKTKMVREVKPDKELDDIREILMGRPGLLVLDEAHTPRNQRSCIWKTLSKVETQKRILLSGTPFQNNFLELCNVLGLARPKYLERLTSTLKKSGMTVTKRGKKNLGNEINNRGIEELKAVMLPFVHVHKGSILQSSLPGLRECVVVLNPPELQRRVLESIEVTHNRKTKNVFETEHKLSLVSVHPSLVSRCKISEKERLSIDEALLAQLKKVRLDPNQSVKTRFLMEFVELCEVIKEKVLVFSQYIDPLKLIMKHLVSRFKWNPGEEVLYMHGKLEQKQRQTLINEFNDPKSKAKVFLASTKACSEGISLVGASRVILLDVVWNPAVERQAISRAYRIGQKRIVYTYHLVAKGTPEGPKYCKQAQKDRISELVFACSSRHDKGKEKIAEAVTEDKVLDTMVEHSKLGDMFDNLIVQPKEADLVEGFSILMP

Molecular target: VDD-3FLAG (Arabidopsis (Col-0))
Assay: affinity purification with mass spectrometry; around 10 g floral tissue of FLAG-tagged transgenic plants, Col-0 as control; IP buffer 50 mM Tris-HCl pH 8.0, 150 mM NaCl, 5 mM EDTA, 10% glycerol, 0.1% Tergitol; anti-FLAG M2 magnetic beads, 4 °C 2 h; eluted with 3×FLAG peptide; LFQ by MaxQuant

Binder | binding
B1 | binds
B2 | binds
B3 | binds
